Structures are written as SMILES. This is one part of the list. These are further read-outs of the screen, such as a control signal, another cell line or another target. No call is given for them. The list favours compounds with an active or inconclusive main result. Potencies come from curve fits of mixed quality, noted in brackets.

A short description of the experiment: qHTS assay for small molecule antagonists of peroxisome proliferator-activated receptor gamma signaling (AID 588537). As to conditions: HEK293 PPARg-UAS-bla, beta-lactamase ratio, antagonist mode; measured here: W460 blue channel. A digest of the protocol: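 Read-out: CCF4 fluorescence (ex 405, em 460/530 nm) after 2 h at RT. Cells were HEK293 carrying a UAS-bla reporter and treated 16 h at 37 C with compound plus rosiglitazone (50 nM final). Normalized to rosiglitazone and DMSO.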
Background: In qHTS, concentration-response curves come from the screen itself.
On to `O=C(O)CCSSCCC(=O)O`, for which the half-maximal activity concentration (AC50) is 63.1 µM [rising, single point].

Regarding `CCCC(Cl)CCCC(Cl)CCC(Cl)CCC(Cl)CCC(Cl)CCCC(Cl)CCC` (stereo not given), the AC50 is 7.08 µM [falling, partial curve, poor fit].

`O=C1C=CCCC1`: the AC50 is 50.1 µM [rising, single point].

Consider `CC(=O)CC(C)C`, for which the half-maximal activity concentration (AC50) was 50.1 µM [rising, single point].

With `Cc1cc(C)c(N)cc1C`, the AC50 is 50.1 µM [rising, single point].

For `CNc1ccccc1`, the concentration at half-maximal activity (AC50) is 70.8 µM [rising, single point].

On to `O=Cc1cccc(Br)c1`, for which the concentration at half-maximal activity (AC50) is 70.8 µM [rising, single point].

In the case of `CC(C)CCCCCCCCCCCCCCC(=O)O`, the AC50 was 0.00316 µM [falling, full curve, poor fit].

Turning to `O=C1CCC(=O)O1`, the concentration at half-maximal activity (AC50) is 39.8 µM [rising, single point].

Take `CCCN(CCC)C(=O)SCC`: the half-maximal activity concentration (AC50) was 70.8 µM [rising, single point].

Regarding `Nc1cccc(S(=O)(=O)O)c1`, the concentration at half-maximal activity (AC50) was 44.7 µM [rising, single point].

Turning to `NC(=O)Nc1nc2ccccc2[nH]1`, the concentration at half-maximal activity (AC50) was 50.1 µM [rising, single point].

On to `CCCCCC/C(C=O)=C\c1ccccc1`, for which the AC50 was 50.1 µM [rising, single point].

With `Nc1cc([N+](=O)[O-])ccc1C(=O)O`, the AC50 is 70.8 µM [rising, single point].

As to `O=C(/C=C/c1ccc(O)c(O)c1)O[C@@H](C(=O)O)[C@@H](OC(=O)/C=C/c1ccc(O)c(O)c1)C(=O)O`, the half-maximal activity concentration (AC50) was 63.1 µM [rising, single point].

In general, AC50 refers to the concentration giving half of the maximal activity seen.

Source of the values: PubChem BioAssay (NCATS).
